Measured values reported in patent publication US20250186432A1, “SPLEEN TYROSINE KINASE INHIBITOR, COMPOSITION, AND METHODS OF USE” (PURDUE RESEARCH FOUNDATION, priority 2022, published 2025).
Some entries share one result that the patent states for a list of compounds.

System: growth factor receptor kinases
Assay: Potency for Syk compared to growth factor receptor kinases
Assay type: biochemical
Settings: Syk vs HGFR, EGFR, VEGFR, IGF1R, FGFR3

O=C(Nc1cnn2ccc(N3CCC[C@@H]3c3cc(F)ccc3F)nc12)N1CC[C@H](O)C1 [Larotrectinib]
fold more potent for Syk than for growth factor receptor kinases: ≤ 20 fold
